# Percent effect of library compounds

A: 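Whole-parasite assay of Trypanosoma brucei over 72 hours; the read-out is not stated. Concentration: 30 µM. Direction is inferred from retests: higher values go with stronger inhibition. Values scatter widely below zero; nearly all retest evidence comes from the higher of the two concentrations used. Size under these conditions: about 64,000 compounds, about 940 of them at 50% or above in at least one test.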
B: 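Assay of Toxoplasma gondii numbers, read through their beta-galactosidase reporter with a colour substrate. Concentration: 10 µM. Higher reads as fewer parasites (inferred from which compounds were picked for retests). Of about 67,000 compounds tested this way, about 260 (0.38%) reached 50% or more in at least one test.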

Values are the deposited “Percent Effect”, in %.
The controls that fix the scale are not given in the record; negative values are as filed.
This is an unselected part of the compounds tested.
A dash means the value is not listed here; it may have been measured.

Compound,A,B
CC(C)N1CCCC(Cc2nccnc2Cl)CC1 (centres undefined),-39.48%,-5.018%
Br.Cn1nccc1CN1CCOC(c2cccc(-c3cncnc3)n2)C1 (centres undefined),-1.234%,-4.105%
Cc1ccc(CC(=O)N2C[C@@H](CN(C)C)[C@@H](CO)C2)cc1C,-9.716%,4.901%
Cc1cc(C)n(C2CCCN(C(=O)c3c(C)noc3C)C2)n1 (centres undefined),-4.498%,0.4632%
N#Cc1cccc(N2CCC(CO)(CCCc3ccccc3)CC2)n1,-55.17%,-16.96%
c1cc2cc[nH]c2c(CC2CN(Cc3cncs3)C2)n1,-27.96%,7.254%
Cc1nc2c(c(=O)n1C)CN(C(=O)C1CCCN(C3CCCC3)C1)C2 (centres undefined),-19.26%,14.67%
O=C(O)C(F)(F)F.[H][C@@]12CN(Cc3cccs3)C[C@]1([H])C(=O)N(c1cncnc1)C2,-29.85%,-14.11%
Cc1nc(CNc2nc(-c3ccco3)nc3c2CCNCC3)n[nH]1,14.93%,-3.114%
CCOCC(=O)Nc1cc(C)cnc1OC,5.247%,-4.661%
CC(c1ncc(C(C)(C)C)o1)N1CCN(c2ccncc2)CC1 (centres undefined),-30.56%,-0.4528%
Cc1cnn(C2CN(CC(=O)NCCc3ccccc3)C2)c1,43.85%,-1.067%
Cc1ncc(Cl)c(C(=O)N2CC(=O)N(C)c3ccccc32)n1,-28.18%,-8.011%
CC(=O)N(Cc1noc(C2CC2)n1)C1CCN(Cc2cc(C)on2)C1 (centres undefined),-12.65%,-1.297%
Cc1ccc(-c2cc(N)c(=O)n(C(C)C(N)=O)n2)o1 (centres undefined),1.763%,-2.405%
Cc1cc(F)cc(S(=O)(=O)Nc2ccn(CCCC#N)n2)c1,2.445%,16%
COc1cc(C(=O)N2CC3(CCNCC3)c3cc(Cl)ccc32)ccn1.O=C(O)C(F)(F)F.O=C(O)C(F)(F)F,-3.633%,5.586%
O=C(c1cc[nH]n1)N(Cc1ccc(F)cc1)CC1CC1,11.73%,-2.052%
O=C(Nc1ccccc1C(=O)N1CCCC1)NC1CCOCC1,-5.281%,-11.43%
COc1ccc(S(=O)(=O)NCCCc2ccc(N(C)C)cc2)cc1Cl,17.84%,27.16%
c1ccc(Cn2cccn2)c(CN2CCCCC2CCn2ccnc2)c1 (centres undefined),-9.617%,8.271%
Fc1cnc(N2CCCn3c(nnc3Cn3ccnc3)C2)nc1.O=C(O)C(F)(F)F,1.745%,-2.066%
CCc1nnc2n1CC(CNCc1ccncc1)CC2 (centres undefined),-25.23%,3.315%
COc1cc(C)cc(C(C(=O)O)N(C)Cc2ccon2)c1OC (centres undefined),-22.53%,3.942%
Cc1cnc(C(=O)N2CCCC(n3nc(C)nc3C)C2)cn1 (centres undefined),-25.68%,13.46%
COCCCS(=O)(=O)N1CCN(C(=O)CO)CC1,-63.07%,24.33%
Cl.O=C(O)CC1CN(Cc2ccccc2)CCO1 (centres undefined),-10.05%,-4.777%
COc1ccc(-c2n[nH]cc2CN(C)Cc2nnc(C)o2)c(F)c1,5.603%,1.84%
Cc1nc(CC(=O)N2CCCC2c2nc(-c3ccccc3)no2)cs1 (centres undefined),-51.08%,9.732%
Cc1nc(C)c(-c2ccn(CC(=O)Nc3cnn(C)n3)n2)s1,3.542%,-3.123%
O=C(NC1CC1)N1Cc2[nH]nc(COc3cccnc3)c2C1.O=C(O)C(F)(F)F,-74.41%,4.628%
COCCN(C)CCN1CC2(CCN(C3CCSC3)CC2)OC1=O (centres undefined),-11.3%,-6.488%
Cc1ccc(S(=O)(=O)N2CCc3ccc(F)cc32)cc1C(=O)O,-1.159%,-2.48%
CC(C)CC(NC(=O)c1ccn(C)c(=O)c1)c1cccs1 (centres undefined),-23.5%,-0.8737%
Cn1cnc2c1CCN(CC(=O)NC1CCCCNC1=O)C2 (centres undefined),-48.26%,5.756%
CN(CC1CCOCC1)C1CCCN(c2ccccn2)C1 (centres undefined),6.032%,-7.824%
CC(C)CC(=O)N1CCC(c2nnc3n2CCCCC3)CC1,-33.62%,-5.59%
CCOc1ccc(S(=O)(=O)N(C)Cc2cnn(CC)c2)cc1,-10.93%,22.15%
CNC(=O)NCC(=O)N(C)C(c1ccc(Cl)cc1)c1cccnc1 (centres undefined),-30.38%,-
Cc1cc(O)cc(C2CCCN2C(=O)c2ccncc2)n1 (centres undefined),-2.576%,-6.479%
COc1ncccc1NC(=O)N(CC(C)C)C1CC1,-,8.342%
COc1c(C2CCCN2CC(=O)Nc2cc(C)nn2C)c(C)nn1C (centres undefined),-21.45%,11.97%
Cc1noc(CN2CCN(c3cncc(Cl)n3)CC2)n1,-27%,15.16%
Cc1ccc(N2CCC(NC(C)c3ccc(C)o3)CC2)nc1 (centres undefined),1.037%,2.774%
CC1(C)CNC(=O)c2nc(-c3n[nH]c(=O)[nH]3)[nH]c2C1,-63.36%,-8.21%
CC(=O)NCCCNC(=O)N1CCN(c2cc(F)ccc2F)CC1,-29.17%,12.91%
CCN(CC1CCOC1)S(=O)(=O)Cc1cc(Cl)ccc1OC (centres undefined),-41.26%,-0.06242%
CNC(=O)C(CCSC)NC(=O)c1ccc2ccccc2n1 (centres undefined),-14.66%,-8.699%
Cc1cc(Nc2nc(C)cc(C)n2)cc(C2CCCN2)n1 (centres undefined),9.396%,-5.801%
CN(C)C(=O)CN1CCC2(CC1)COc1ccccc1S(=O)(=O)N(C)C2.O=C(O)C(F)(F)F,-9.797%,7.724%
CCC1(CC)CC(=O)N(CC(O)c2cccc(Br)c2)C1=O (centres undefined),-27.34%,23.19%
C=C(C)CN(CC)Cc1nc(C2CC2)no1,-10.04%,2.572%
CN(C)CC1(O)CCN(C(=O)c2ccc(-n3cnnc3)cc2Cl)C1 (centres undefined),-87.66%,1.079%
CC(NC(=O)CCCOc1cccc(F)c1)c1ccncc1 (centres undefined),-35.06%,-1.651%
CC(C)N1CC(C(=O)NCc2ccnc(-n3cccn3)c2)CC1=O (centres undefined),-8.811%,-18.87%
COc1ccc(NC(=O)NCC(C)N2CCc3ccccc32)cc1 (centres undefined),-7.739%,0.7692%
Cc1nc[nH]c1-c1nc2cc(S(=O)(=O)N3CCCC3)ccc2n1C,-80.99%,-3.503%
CC(Cn1cccn1)NC(=O)N1CCN(Cc2ccsc2)CC1 (centres undefined),-21.87%,25.57%
Cc1ncccc1C(=O)Nc1cccc(OCC(F)F)n1,-0.2071%,-7.447%
Cc1nc(CCNC(=O)NCc2ccc(N(C)C)nc2)cs1,28.44%,7.295%
COCC1CN(S(=O)(=O)C2CC2)Cc2ncn(CC3CC3)c21 (centres undefined),-26.44%,22.35%
Cc1ccc(N2C[C@H](C)[C@]3(CCN(c4cccnc4)C3=O)C2)nn1.O=C(O)C(F)(F)F.O=C(O)C(F)(F)F,-32.51%,1.385%
CCCc1nnc(NC2CCN(C3CCOCC3)CC2)o1,-18.33%,-1.027%
Cc1cccc(NC(=O)CNC(=O)c2ccccc2F)c1,-82.27%,1.187%
Fc1cccnc1N1CCOCC2(CCCNC2)C1 (centres undefined),-9.058%,3.443%
COC(=O)C1CCN(C(=O)NCC(C)Cc2cccs2)CC1 (centres undefined),-0.3904%,-8.256%
CC(C)=CCN1CCN(Cc2cc(C)n[nH]2)CC1CCO (centres undefined),-31.26%,2.122%
[H][C@@]12CS(=O)(=O)C[C@]1([H])N(Cc1cc(C)cc(C)c1)CCN2C(=O)C1CCC1,-37.15%,-1.145%

The last 7 entries again:

- Cc1ccc(N2C[C@H](C)[C@]3(CCN(c4cccnc4)C3=O)C2)nn1.O=C(O)C(F)(F)F.O=C(O)C(F)(F)F : A: -32.51%; B: 1.385%
- CCCc1nnc(NC2CCN(C3CCOCC3)CC2)o1 : A: -18.33%; B: -1.027%
- Cc1cccc(NC(=O)CNC(=O)c2ccccc2F)c1 : A: -82.27%; B: 1.187%
- Fc1cccnc1N1CCOCC2(CCCNC2)C1 (centres undefined) : A: -9.058%; B: 3.443%
- COC(=O)C1CCN(C(=O)NCC(C)Cc2cccs2)CC1 (centres undefined) : A: -0.3904%; B: -8.256%
- CC(C)=CCN1CCN(Cc2cc(C)n[nH]2)CC1CCO (centres undefined) : A: -31.26%; B: 2.122%
- [H][C@@]12CS(=O)(=O)C[C@]1([H])N(Cc1cc(C)cc(C)c1)CCN2C(=O)C1CCC1 : A: -37.15%; B: -1.145%

Data taken from ChEMBL document CHEMBL3988442, “University of Dundee, Small-Polar-MMV Screening Library” (2021).